Measured values reported in article PMC6324937.
Results are given in words; binding and its absence hold for the method and conditions named. Binding seen in cells or lysates may run through a third protein. Some results given as binding are weak or reduced against the parent protein; the word gives no strength.

Protein sequences, listed by entry. Tags and fused reporters are not part of them. Residues count along the entry.
UniProt O00429: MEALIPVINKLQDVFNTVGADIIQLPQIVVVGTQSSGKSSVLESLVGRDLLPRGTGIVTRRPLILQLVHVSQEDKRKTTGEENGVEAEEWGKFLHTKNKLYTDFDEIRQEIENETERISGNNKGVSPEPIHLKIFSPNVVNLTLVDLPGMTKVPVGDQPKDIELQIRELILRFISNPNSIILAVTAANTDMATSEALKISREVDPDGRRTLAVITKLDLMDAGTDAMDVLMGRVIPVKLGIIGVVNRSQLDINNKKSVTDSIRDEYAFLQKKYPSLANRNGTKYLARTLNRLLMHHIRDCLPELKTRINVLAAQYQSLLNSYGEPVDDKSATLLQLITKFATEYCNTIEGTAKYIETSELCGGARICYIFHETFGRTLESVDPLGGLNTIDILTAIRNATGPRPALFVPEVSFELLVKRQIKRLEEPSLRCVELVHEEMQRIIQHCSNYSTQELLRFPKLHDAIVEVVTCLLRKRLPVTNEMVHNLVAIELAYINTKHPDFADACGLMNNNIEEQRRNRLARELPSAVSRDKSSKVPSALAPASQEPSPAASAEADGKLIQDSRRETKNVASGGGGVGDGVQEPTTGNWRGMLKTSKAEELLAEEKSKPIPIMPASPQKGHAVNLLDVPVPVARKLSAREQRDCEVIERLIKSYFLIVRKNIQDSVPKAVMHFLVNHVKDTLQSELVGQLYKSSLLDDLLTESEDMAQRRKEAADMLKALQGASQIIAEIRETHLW
UniProt P07237, residues 18-508: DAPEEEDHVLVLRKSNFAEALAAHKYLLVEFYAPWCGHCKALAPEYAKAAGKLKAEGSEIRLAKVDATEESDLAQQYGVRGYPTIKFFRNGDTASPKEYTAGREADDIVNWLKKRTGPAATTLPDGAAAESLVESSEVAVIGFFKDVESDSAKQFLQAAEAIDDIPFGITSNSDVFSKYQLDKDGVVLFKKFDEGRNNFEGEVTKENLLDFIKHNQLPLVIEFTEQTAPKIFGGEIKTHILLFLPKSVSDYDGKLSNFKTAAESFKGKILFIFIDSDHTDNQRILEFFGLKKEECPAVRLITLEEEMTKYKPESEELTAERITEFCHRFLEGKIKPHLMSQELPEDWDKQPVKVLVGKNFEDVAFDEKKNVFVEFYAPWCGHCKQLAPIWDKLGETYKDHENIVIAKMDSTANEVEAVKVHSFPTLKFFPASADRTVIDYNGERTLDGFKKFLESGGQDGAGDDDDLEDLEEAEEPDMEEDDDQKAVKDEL

Tests used:
[1] = biological target: C-terminal Venus-HADrp1 (Venus-C-terminal vector expressing Drp1) (UniProt O00429); assay: split reporter; BiFC in COS1 cells co-transfected with VN-PDIA1, a VC construct and pECFP (transfection control); YFP signal read by microscopy
[2] = biological target: C-terminal Venus-HADrp1 (Venus-C-terminal vector expressing Drp1) (UniProt O00429); assay: co-IP; HEK293T cells co-transfected with the Venus vectors; immunoprecipitation with HA antibody, SDS-PAGE and immunoblotting

binding [1]: binds | binding [2]: binds
Substance: N-terminal Venus-PDIA1 (Venus-N-terminal vector expressing PDIA1) (from UniProt P07237 18-508) (enzyme)
